Results on one molecule are retold here after patent US20250059201A1, “CAMPTOTHECIN COMPOUND AND CONJUGATE THEREOF” (priority 2021, published 2025).

These are yes or no findings as the source states them, for the method shown. Some entries that bind do so weakly or less than the wild type.

This test concerns the target T1, Trop-2 on BxPC-3 cells (human, UniProt P09758 27-323).
T1 construct: whole, on cells; also called Trop-2-positive BxPC-3 tumor cells
T1 sequence (looked up): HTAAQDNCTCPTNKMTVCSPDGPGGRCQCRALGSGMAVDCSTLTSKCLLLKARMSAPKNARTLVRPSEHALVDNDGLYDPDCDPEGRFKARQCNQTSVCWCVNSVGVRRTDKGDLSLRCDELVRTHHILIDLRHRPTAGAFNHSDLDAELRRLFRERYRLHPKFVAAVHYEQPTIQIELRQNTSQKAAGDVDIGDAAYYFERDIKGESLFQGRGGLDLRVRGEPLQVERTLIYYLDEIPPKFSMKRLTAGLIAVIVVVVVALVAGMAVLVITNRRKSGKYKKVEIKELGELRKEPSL
The test can be described thus: flow cytometry on BxPC-3 cells. (In general: A flow cytometer gives signals particle by particle.)

B1: Antibody h23-12 (antibody, human IgG1, kappa, V domains shown)
VH: QVQLVQSGAEVKKPGASVKVSCKASGYTFTSYWMHWVRQAPGQGLEWMGEITPSDNYGSYNQKFKGRVTITRDTSTSTAYMELSSLRSEDTAVYYCARGHGNYVSFDYWGQGTLVTVSS
VL: DIQMTQSPSSLSASVGDRVTITCRASQDISNYLNWYQQKPGKAPKLLIYYTSRLESGVPSRFSGSGSGTDFTLTISSLQPEDFATYFCQQGYTLPPYTFGQGTKLEIKR
notes: Monoclonal antibody; also called the mAb in Trop2-ADC-14; anti-Trop-2 antibody h23-12
As for B1, the binding entry is given as “binds”.
